In paper doi:10.1101/2025.06.25.661491:
No constants are given. Whether binding was seen depends on the method and setting. Binding seen in cells or lysates may run through a third protein. Some results given as binding are weak or reduced against the parent protein; the word gives no strength.

Chains of the proteins cited; added tags and fusions are not shown. Residues count along the entry.
UniProt P14334, 20-183: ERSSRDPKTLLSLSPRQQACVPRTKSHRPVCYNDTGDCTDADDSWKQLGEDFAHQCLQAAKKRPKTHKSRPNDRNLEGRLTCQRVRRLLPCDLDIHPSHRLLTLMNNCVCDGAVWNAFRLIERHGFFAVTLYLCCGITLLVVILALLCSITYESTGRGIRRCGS
UniProt P27797, 18-417: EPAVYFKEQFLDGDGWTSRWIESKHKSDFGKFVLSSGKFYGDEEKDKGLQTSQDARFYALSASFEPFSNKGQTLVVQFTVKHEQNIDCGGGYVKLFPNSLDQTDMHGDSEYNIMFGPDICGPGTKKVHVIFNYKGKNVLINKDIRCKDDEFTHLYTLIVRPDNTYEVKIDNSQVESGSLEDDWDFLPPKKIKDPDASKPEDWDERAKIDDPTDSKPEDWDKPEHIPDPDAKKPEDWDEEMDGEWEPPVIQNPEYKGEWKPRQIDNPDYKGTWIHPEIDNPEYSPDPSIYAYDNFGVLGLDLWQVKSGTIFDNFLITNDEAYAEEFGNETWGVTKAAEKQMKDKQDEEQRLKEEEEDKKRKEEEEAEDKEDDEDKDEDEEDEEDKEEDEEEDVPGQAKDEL
UniProt P61769, 21-119: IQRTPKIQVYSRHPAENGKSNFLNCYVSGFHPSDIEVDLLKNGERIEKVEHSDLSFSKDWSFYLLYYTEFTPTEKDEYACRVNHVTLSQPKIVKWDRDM

Molecular target: US6 fused at its C terminus with a streptavidin-binding peptide (US6^SBP) (human cytomegalovirus (HCMV)) (UniProt P14334)
Experiment: pull-down

Row | Substance | binding
1 | calreticulin (from UniProt P27797 18-417) | binds
2 | β2-microglobulin (from UniProt P61769 21-119) | binds
